# Laboratory results from article PMC12040169 (PLOS Biology, 2025).
# The list shows a part of the results.
# Test system: T1, CTL2-GFP (C. trachomatis L2/434/Bu, GFP-expressing)
# T1 construct: L2/434/Bu, GFP-expressing
# Parameters: species or system HeLa; Intracellular C. trachomatis growth in HeLa cells, bulk GFP fluorescence relative to DMSO
# Conditions: bulk GFP, single well; 28.5 h, 10 µM; inhibitor
row,SMILES,% of control remaining
1,O=C1COc2ccccc2C/C=C/CC2(CCCN(C(=O)Cn3ccnc3)C2)CN1 (stereo not shown) [CBK292050],96.1689%
2,OCCc1ccc(Nc2cc(-c3ccsc3)ncn2)cc1 [CBK090769],183.665%
3,COc1cc(C2N3CC4(C)CN2CC(C)(C3)C4=O)ccc1O (stereo not shown) [CBK261453],95.9141%
4,CCN1CCN(CCOc2c(OC)cccc2OC)CC1 [CBK267375G],169.761%
5,COc1ccc([C@@]23CC[C@@H](NC(=O)c4ccc5occc5c4)C[C@@H]2N(C)CC3)cc1OC [CBK074253T],106.569%
6,COC(=O)c1sccc1NC(=O)c1ccccc1Cl [CBK066860],145.382%
7,Cc1cc(NC(=O)CS(=O)(=O)c2cccc(C(F)(F)F)c2)on1 [CBK306015],127.654%
8,CCn1c(N2CCCC(C(=O)NC3CC3)C2)nc2ccccc21 (stereo not shown) [CBK282419],143.335%
9,O=C(Nc1cc(NC(=O)C2C3C=CC(C3)C2C(=O)O)ccc1Cl)c1cccs1 (stereo not shown) [CBK263959],116.851%
10,COC(=O)c1ccc(N2C(=O)CC(SCCc3nc4ccccc4[nH]3)C2=O)cc1 (stereo not shown) [CBK267188],179.54%
11,COc1ccc2[nH]c3c(c2c1)CCN(C=O)C31CCCN(CCC#N)C1 (stereo not shown) [CBK039445],128.071%
12,O=S(=O)(NC[C@H]1C[C@@H]2CC[N@]1C[C@@H]2CN1CCOCC1)c1ccc(Cl)cc1 [CBK288762],137.69%
13,O=C(O)C1CC1C(=O)N1CC2(CCCC2)c2c(F)cccc21 (stereo not shown) [CBK306360],104.567%
14,Cc1ccc(Oc2ccc([N+](=O)[O-])cc2)c(Br)c1 [CBK002832],125.403%
15,Cc1cc(/C=C\c2nc(O)c([N+](=O)[O-])c(=O)[nH]2)c(C)n1-c1ccc(C(=O)O)cc1 [CBK267334],195.829%
16,CCCC/C=C/c1cncc(N2CCN(c3ccccn3)CC2)n1 [CBK037276],71.3925%
17,O=C(O)c1ccc(N2CCN(CCO)CC2)c([N+](=O)[O-])c1 [CBK264911C],137.113%
18,Cc1ccc(C2=CCN(CC(=O)Nc3ncc(C)s3)CC2)o1 [CBK283383],135.899%
19,Cc1cc(NC(=O)C2COc3ccccc3O2)c2ccccc2n1 (stereo not shown) [CBK115871],100.58%
20,C=Cn1ncc(CN2CCC3(O)CCCCC3C2)c1C (stereo not shown) [CBK283302],141.044%
21,COc1cccc(N2CCN(c3cc4n[nH]c(=O)n4cn3)CC2)c1 [CBK300511],152.487%
22,CCCn1ncc(CN2CCC3(CC2)CC(C(=O)O)N(C(C)=O)C3)c1C (stereo not shown) [CBK306612],93.5437%
23,O=C(Nc1cnc(-c2cccc(OC(F)(F)F)c2)c(-c2cccnc2)n1)c1ccccn1 [CBK036837],152.269%
24,CC(C)(C)C(=O)N[C@H]1C[C@@H](Cc2cc(CN3CCOCC3)on2)C1(C)C [CBK289247],152.994%
25,CCC(CN1CCOCC1)n1cncc1-c1[nH]c2ccccc2c1C (stereo not shown) [CBK281800],112.503%

row,SMILES,% of control remaining
1,CN1C(=O)C(CC(=O)NCCCc2ccc(F)cc2)c2ccccc21 (stereo not shown) [CBK282474],94.5204%
2,c1cc(-c2ccc(Nc3ccc(N4CCOCC4)cc3)nc2)cs1 [CBK036844],193.756%
3,O=C(COC(=O)c1ccc2c(c1)C(=O)N(c1cccc(Cl)c1)C2=O)c1ccc(Br)cc1 [CBK262324],109.361%
4,c1ccc(-c2nnc(CSc3nnc(-c4ccncc4)[nH]3)o2)cc1 [CBK269962],159.202%
5,O=C1CC(N2CCN(Cc3ccc4c(c3)OCO4)CC2)C(=O)N1c1ccc(Br)cc1 (stereo not shown) [CBK074544],123.003%
6,CCOc1ccc(NC(=O)COc2ccccc2/C=C/C(=O)O)cc1 [CBK286935],130.523%
7,Cc1ccc(Cl)cc1Nc1nc2nc(C)c(NCC3CC3)cn2n1 [CBK008522],121.624%
8,COc1cc(/C=N/n2c(S)nnc2-c2cccnc2)ccc1OCc1ccccc1 [CBK265307],114.997%
9,CC(=O)NC(c1ccccn1)C1CCCN(C(=O)C2CCCCC2)C1 (stereo not shown) [CBK285031],108.251%
10,COc1cc(NC(=O)c2ccc3c(c2)C(=O)N(Cc2ccccc2)C3=O)c(C(=O)O)cc1OC [CBK266544],164.791%
11,COc1ccc(CCN2CCC(Oc3nccnc3NS(C)(=O)=O)CC2)cc1OC [CBK084285],101.476%
12,COc1cccc(C2CC(c3cccc(Cl)c3)n3nc(N)nc3N2)c1 (stereo not shown) [CBK293966],132.339%
13,Cc1cc(C(F)F)nn1CC(=O)N1CCc2ncc(Cl)cc2C1 [CBK284853],70.6207%
14,CN(C)c1ccccc1-c1cc(NCCc2ccccn2)ncn1 [CBK037189],117.803%
15,O=C(NCc1ccc(Cl)cc1)N1CCN(c2ccccc2)CC1 [CBK155193],202.743%
16,CS(=O)(=O)c1sc(C(=O)O)c2c1C=CCC2 [CBK005513],118.29%
17,Oc1cc(C(F)(F)F)nc(N2CCc3ccccc3C2)n1 [CBK000344],92.5702%
18,COc1ccc(/C=N\N(C)c2nc(-c3ccccc3)cc(-c3ccc(Br)cc3)n2)cc1OC [CBK261799],125.039%
19,Cc1coc(C)c1C(=O)CC1(O)C(=O)N(CCCC#N)c2ccccc21 (stereo not shown) [CBK307383],135.01%
20,c1ccc(NCCOc2nccnc2N2CCCC2)cc1 [CBK115814],93.3616%
21,Cc1ccc(C(=O)NC(=S)Nc2cccc(NC(=O)c3ccccc3C)c2)cc1 [CBK264049],119.022%
22,CCCCn1cnc2c(c1=O)c1nc3ccccc3nc1n2CCc1ccc(OC)cc1 [CBK269538],135.667%
23,COC(=O)c1ccc(S(N)(=O)=O)o1 [CBK113186],100.994%
24,Nc1ccc(-n2c(-c3ccccc3)c3c(c2-c2ccc(Cl)cc2)C(=O)c2ccccc2C3=O)cc1 [CBK262695],100%

# Part of the list above in another layout.
row	SMILES	% of control remaining
5	O=C1CC(N2CCN(Cc3ccc4c(c3)OCO4)CC2)C(=O)N1c1ccc(Br)cc1 (stereo not shown) [CBK074544]	123.003%
6	CCOc1ccc(NC(=O)COc2ccccc2/C=C/C(=O)O)cc1 [CBK286935]	130.523%
7	Cc1ccc(Cl)cc1Nc1nc2nc(C)c(NCC3CC3)cn2n1 [CBK008522]	121.624%
8	COc1cc(/C=N/n2c(S)nnc2-c2cccnc2)ccc1OCc1ccccc1 [CBK265307]	114.997%
